From paper PMC7398064
These are yes or no findings as the source states them, for the method shown. Binding seen in cells or lysates may run through a third protein. A yes stands for co-enrichment or nearness to the bait. Other partners may have been found.

Sequences of proteins named here, by UniProt entry; tags and fusion partners are left off.
UniProt O75340: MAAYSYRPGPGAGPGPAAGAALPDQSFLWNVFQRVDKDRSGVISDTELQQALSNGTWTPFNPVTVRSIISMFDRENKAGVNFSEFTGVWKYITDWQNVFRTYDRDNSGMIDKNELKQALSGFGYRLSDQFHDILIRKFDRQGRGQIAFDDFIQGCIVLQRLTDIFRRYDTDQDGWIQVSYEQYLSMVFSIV

Target: Programmed cell death protein 6 (PDCD6) (human (endogenous in HCT116)) (UniProt O75340)
Assay: affinity purification with mass spectrometry; HCT116 lysate (50 mM Tris-HCl pH 7.4, 100 mM NaCl, 0.5 mM Ca2+, 0.5% NP-40) purified with anti-PDCD6 antibody; SDS-PAGE bands excised, Q Exactive; spectra searched against raf1.fasta from UniProt

c-Raf (Raf-1) (from UniProt P04049 1-648)
binding: binds
